# Laboratory results: patent publication US12370235B2 (University of Saskatchewan, priority 2021, dated 2025)
# End groups of sequences in plain letters are not given here. Some peptides are written in HELM: one residue between dots, names in brackets for other building blocks, links after the first $. Ends that are not written are not given here.
# Test: peptide made by a vendor
# Details: whole synthesis
Substance,crude purity (method not given) [%],purity (crude or final not stated) [%]
(AQD)IISTIG ? LVKWII ? TVNKFTK,89.5,
(MAAD)IISTIG ? LIKWII ? TVKKFKK (IISTIGDLIKWIIDTVKKFKK; S. saccharolyticus),70.8,
(MAAD)IISTIS ? LVKWII ? TVNKFTK,85.1,
(MAAN)IISTIG ? LVKWII ? TVNKFKK,91.2,
(MAGD)IIGTIN ? LIKWIA ? TV ? KYKK (IIGTINDLIKWIADTVEKYKK; S. massiliensis),82.8,
(MLTMAAD)IISTIV ? FVKLIA ? TIAKFMK (IISTIVEFVKLIAETIAKFMK; S. cornubiensis),94.4,
(MS)IIAGIIKFIKGLI ? KFTGK (IIAGIIKFIKGLIEKFTGK),72.1,
(MTKD)IV ? TVGGLVKWIL ? TVKKFA (IVETVGGLVKWILDTVKKFA; S. auricularis),86.7,
AVGGLVKWILDTVKKFA,,97.1
H-MTKDIVETVGGLVKWILDTVKKFA,,95.1
PEPTIDE1{[For].M.T.K.D.I.V.E.T.V.G.G.L.V.K.W.I.L.D.T.V.K.K.F.A}$$$$V2.0,,97.5
TAGGLVKWILDTVKKFA,,97.8
TV ? LVKWIL ? VAKF ?,,97.4
TVAGLVKWILATVKKFA,,94.2
TVAGLVKWILDTVKKFA,,83.1
TVDGLVKWILATVKKFA,,96.1
TVGALVKWILDTVKKFA,,98.4
TVGGLVKWIL ? TVKKFA-NH2 [listing 1 of 2 here],,98.6
TVGGLVKWIL ? TVKKFA-NH2 [listing 2 of 2 here],,96.3
TVGGLVKWIL ? TVKKFA-NH2 (TVGGLVKWILKTVKKFA),,97.0
TVGGLVKWILAAVKKFA,,95.3
TVGGLVKWILATVKKFA-NH2,,97.4
TVGGLVKWILDTFKKFA,,88.9
TVGGLVKWILDTVKKFA,,98.3

Substance,crude purity (method not given) [%],purity (crude or final not stated) [%]
TVGGLVKWILDTVKKFA-NH2,,96.3
TVGGLVKWILDTVKKFI,,83.4
TVGGLVKWILDTVKKFK,,84.4
TVGGLVKWILDTVKKFW,,95.5
TVGGLVKWILDVVKKFA,,88.1
TVGGLVKWILDWVKKFA,,93.2
TVGGLVKWILKAVKKFA,,88.0
TVGGLVKWILKTVKKFA,,91.2
TVGGLVKWILKTVKKFA-NH2,,95.1
TVGGLVKWILNTVKKFA,,99.9
TVGGLVXWILATVKKFA,,95.3
TVGVLVKWILDTVKKFA,,83.7
TVGVLVKWILNVVAKFA,,82.5
TVKALVKWILKTVAKFA,,95.2
TVKALVKWILKTVAKFW,,96.3
TVKFLVKWILKWVAKFA,,96.4
TVKGLVKWILATVKKFA,,93.7
TVKGLVKWILNVVKKFA,,96.0
TVKGLYKWILNVVKKFA-NH2,,95.9
TVKKLVKWILKTVKKFA,,92.3
TVKVLVKWILKVVAKFA,,84.5
TVRALVKWILRTVAKFA,,97.3
TVRALVRWILRTVARFA,,88.8
